Measured values from the supplement of paper PMC10735217.
Where “and” joins values, the source holds several entries; their conditions need not be identical. Identical values can stand only once. Counter-ions that a name gives are not always drawn. The list shows a part of the results. Single values are uncertain here, since repeats match poorly.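 In a drug-repurposing library screen, luminescence reads luciferase driven by eight TEAD-binding elements, stably integrated into human kidney-derived cells. Compounds scoring over five robust Z scores above the plate mean are called hits.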

Tested on: HEK293A TEAD-LUC reporter
Experiment: TEAD-luciferase reporter activity (YAP activation), robust Z score vs plate; higher = stronger YAP/TEAD activation
Details: 24 h

Compound	TEAD-luciferase reporter activity (compound concentration: 200 nM)	TEAD-luciferase reporter activity (compound concentration: 2 uM)	TEAD-luciferase reporter activity (compound concentration: 10 uM)
COc1ccc(-c2ccc3c(N4CCOC[C@@H]4C)nc(N4CCOC[C@@H]4C)nc3n2)cc1CO	inactive: -1.06	inactive: -2.35	inactive: -0.343
N=C(N)NCCC[C@H](NC(=O)[C@@H]1C[C@@H](O)CN1C(=O)[C@@H](N)Cc1ccc(F)cc1)C(=O)NCC(=O)N[C@@H](Cc1c[nH]c2ccccc12)C(N)=O	inactive: -2.65	inactive: -1.14	inactive: 3.29
CN(C)CC[C@H](CSc1ccccc1)Nc1ccc(S(=O)(=O)NC(=O)c2ccc(N3CCN(Cc4ccccc4-c4ccc(Cl)cc4)CC3)cc2)cc1[N+](=O)[O-]	inactive: 2.64	inactive: -1.21	inactive: -0.0837
Nc1ccc(S(=O)(=O)Nc2cnc3ccccc3n2)cc1	inactive: 0.401	inactive: -0.699	inactive: 0.657
CC(C(=O)O)c1cccc(C(=O)c2ccccc2)c1 (stereo unspecified)	inactive: -0.596	–	inactive: 1.02
CC(C(=O)O)c1cccc(C(=O)c2ccccc2)c1 (stereo unspecified) [dexketoprofen trometamol ER]	–	inactive: 0.347	–
COc1ccc(CN(CCN(C)C)c2ccccn2)cc1 [Mepyramine Maleate]	inactive: -1.55	active: 5.14	inactive: 2.58
COC(=O)C[C@H]1C(=O)N(CC(=O)O)CCN1C(=O)CNC(=O)c1ccc(C(=N)N)cc1	inactive: 0.111	inactive: -0.464	inactive: 3.37
Cc1ccc(CCCO)c(NCc2ccc3nc(NCCCN4CCOCC4)n(Cc4nc(C)ccc4O)c3c2)c1	inactive: 0.148	inactive: -1.37	inactive: 1.56
CCCOCCOC(=O)C1=C(C)NC(C)=C(C(=O)OCCOCCC)C1c1cccc([N+](=O)[O-])c1	inactive: 0.11	inactive: -1.49	inactive: -1.45
CS(=O)(=O)c1ccc(-n2cc(Cl)c(OC3CCN(c4ncc(Cl)cn4)CC3)cc2=O)c(F)c1	inactive: -0.696	inactive: -1.4	inactive: -0.747
Cc1ccc2c(c1)C=Cc1cc(C)ccc1C2c1cn(Cc2ccc(C(=O)Nc3nnn[nH]3)o2)c(=O)[nH]c1=S	inactive: 0.119	inactive: -0.0832	inactive: 0.664
O=C(c1ccc(Cl)cc1)N1CCC(N2CCCC2)CC1	inactive: 3.36	–	inactive: 4.91
CC(C)OC(=O)[C@H](C)N[P@](=O)(OC[C@H]1O[C@@H](n2ccc(=O)[nH]c2=O)[C@](C)(Cl)[C@@H]1O)Oc1ccccc1 [Sofosbuvir impurity K]	inactive: -0.888	inactive: -1.29	inactive: 1.56
OCCOCCN1CCN(C(c2ccccc2)c2ccc(Cl)cc2)CC1 (stereo unspecified)	inactive: -1.6	–	inactive: 0.97
OCCOCCN1CCN(C(c2ccccc2)c2ccc(Cl)cc2)CC1 (stereo unspecified) [Hydroxyzine hydrochloride]	–	inactive: -1.64	–
O=C(O)CCc1cc(C(=O)c2ccc(OC3CCCC3)cc2O)ccc1OCc1ccc2c(O)noc2c1	inactive: -1.69	inactive: -1.6	inactive: 2.57
CC(C)CN(C[C@@H](O)[C@H](Cc1ccccc1)NC(=O)[C@@H](NC(=O)CNCc1cccc(F)c1)C(C)(C)C)S(=O)(=O)c1ccc(N)cc1	inactive: 0.379	inactive: -0.955	inactive: -1.6
C[C@H]1COC2(CCN(c3nc(=O)c4cc(C(F)(F)F)cc([N+](=O)[O-])c4s3)CC2)O1 [Stuart Cole cmpd]	inactive: -1.78	–	inactive: -1.44
C[C@H]1COC2(CCN(c3nc(=O)c4cc(C(F)(F)F)cc([N+](=O)[O-])c4s3)CC2)O1	–	inactive: -1.5 and inactive: -1.68	–
Clc1ccc(Cn2c(CN3CCCC3)nc3ccccc32)cc1	inactive: -0.934	–	inactive: 3.46
COC(=O)Cn1c(-c2cccc(Cl)c2)nc2ccc(OCCCN3CCCCC3)cc2c1=O	inactive: -2.06	inactive: -0.588	inactive: 0.765
COc1cc2nc(N3CCN(C(=O)C4CCCCC4)CC3)nc(N)c2cc1OC	inactive: 0.151	inactive: 0.49	inactive: 0.949
NC(=O)Cc1cccc(C(=O)c2ccccc2)c1N [Nepafenac]	inactive: -1.87	inactive: -1.28	inactive: -0.15
Cc1[nH]c2ccc(F)cc2c1-c1nc2c3cccnc3c3ncccc3c2[nH]1	inactive: -2.33	inactive: -1.96	inactive: -0.86
Cc1ccc(C)c(Cn2cc(CCNc3ncnc4c3ncn4[C@@H]3O[C@H](C(=O)NC4CC4)[C@@H](O)[C@H]3O)c3cc(C)ccc32)c1	inactive: -0.896	inactive: -0.403	inactive: 1.33

Compound	TEAD-luciferase reporter activity (compound concentration: 200 nM)	TEAD-luciferase reporter activity (compound concentration: 2 uM)	TEAD-luciferase reporter activity (compound concentration: 10 uM)
CCNC(=O)N1CCN(CCCC(c2ccc(F)cc2)c2ccc(F)cc2)CC1 [Amperozide]	inactive: 0.227	inactive: 2.1	inactive: -1.12
CC1/C=C/C=C\C=C\C=C\C=C\C=C\C=C\C(OC2OC(C)C(O)C(N)C2O)CC2OC(O)(CC(O)CC(O)C(O)CCC(O)CC(O)CC(=O)OC(C)C(C)C1O)CC(O)C2C(=O)O (stereo unspecified) [amphotericin-B]	inactive: 1.08	inactive: 0.316	inactive: -0.828
CCSCC(=O)C12OC(C)(C)O[C@@H]1C[C@H]1[C@@H]3C[C@H](F)C4=CC(=O)C=CC4(C)[C@@]3(F)[C@@H](O)CC12C (stereo partly specified)	inactive: -1.57	active: 5.27	inactive: 0.7
Oc1c(I)cc(I)c2cccnc12 [Iodoquinol]	inactive: -0.677	inactive: -1.92	inactive: 1.87
CCC(C)n1ncn(-c2ccc(N3CCN(c4ccc(OC[C@@H]5CO[C@@](Cn6cncn6)(c6ccc(Cl)cc6Cl)O5)cc4)CC3)cc2)c1=O (stereo partly specified) [Sporanox (Itraconazole)]	inactive: -1.68	–	inactive: -0.235
CCC(C)n1ncn(-c2ccc(N3CCN(c4ccc(OC[C@@H]5CO[C@@](Cn6cncn6)(c6ccc(Cl)cc6Cl)O5)cc4)CC3)cc2)c1=O (stereo partly specified) [itraconazole]	–	inactive: -1.2	–
CCOC(=O)[C@@H]1CSC(c2ccc(OC)c(OC)c2)N1 (stereo partly specified)	inactive: -0.757	inactive: 0.185	inactive: -0.584
C[C@]12CC[C@H](O)CC1=CC[C@@H]1[C@@H]2CC[C@]2(C)C(c3cccnc3)=CC[C@@H]12 [Pharmaprojects No. 4598]	inactive: -0.425	inactive: 4.36	inactive: 1.11
O=C(c1ccc(F)cc1)N1CCC(C(=O)N2CCC(N3Cc4ccccc4C3=O)CC2)CC1	inactive: 0.202	–	inactive: 0.849
CCCCC(CC)COC(=O)/C=C/c1ccc(OC)cc1 (stereo unspecified) [Bergasol]	inactive: -0.104	inactive: 1.31	inactive: -0.848
CC1N(C(=O)c2ccccc2C(F)(F)F)CCOC1(Cn1cncn1)c1ccc(F)cc1F (stereo unspecified)	inactive: -0.967	–	inactive: 1.42
CC1N(C(=O)c2ccccc2C(F)(F)F)CCOC1(Cn1cncn1)c1ccc(F)cc1F (stereo unspecified) [analog of UR 9751]	–	inactive: -1.06	–
CN1C(=O)N(c2cc(Cl)cc(Cl)c2)C(=O)[C@]12CN(c1ccc(C(=O)O)cn1)C[C@H]2c1ccc(C#N)cc1	inactive: 1.94	inactive: 1.2	inactive: -1.61
CCN1CCN(C(C)C)[C@H]2CCn3c(c(C)c4ccccc43)[C@@H]21 [atiprosin]	inactive: -0.825	inactive: 0.939	inactive: 3.49
C[C@H]1[C@H]2N(C(=O)CN(C)N2C(=O)NCc2ccccc2)[C@@H](Cc2ccc(O)cc2)C(=O)N1Cc1cccc2cccnc12	inactive: -2.05	inactive: 0.0309	inactive: 1.22
Cc1ccc(N(C=C2NCCN2)c2cccc(O)c2)cc1	inactive: 0.594	inactive: -1.61	inactive: -0.0702
O=C1CCc2ccccc2O1	inactive: 0.608	inactive: -0.066	inactive: -1.04
Cc1cc(C)cc(-c2ccc(CN3CCCC3C(=O)NCc3ccc(C(F)(F)F)cc3)cc2)c1 (stereo unspecified)	inactive: 1.08	–	inactive: -0.911
CCOc1nn(Cc2ccc(OCc3csc(-c4ccccc4)n3)cc2)cc1CCC(=O)O [Sipoglitazar]	inactive: 0.114	inactive: -0.341	inactive: -0.698
CC(=O)N1Cc2ccccc2OC2(CCN(C(=O)C3CCN(C)CC3)CC2)C1	inactive: 4.01	–	–
COc1cccc(C(=O)NC2CCCN(Cc3ccc(-c4cc(C)cc(C)c4)cc3)C2)c1 (stereo unspecified)	inactive: -0.934	–	inactive: 0.698
COC(CN1CCC(C(=O)c2ccc(F)cc2)CC1)c1ccc([N+](=O)[O-])cc1 (stereo unspecified)	inactive: 0.401	inactive: -0.426	inactive: 2.52
N=C(N)NCCC[C@H](NC(=O)[C@@H]1CCCN1C(=O)[C@@H]1CSSC[C@H](N)C(=O)N[C@@H](Cc2ccc(O)cc2)C(=O)N[C@@H](Cc2ccccc2)C(=O)N[C@@H](CCC(N)=O)C(=O)N[C@@H](CC(N)=O)C(=O)N1)C(=O)NCC(N)=O [Argipressin]	inactive: -1.22	inactive: -0.644	inactive: 1.12
CC(=O)[O][Pt-2]([NH3+])([Cl])([Cl])([NH2+]C12CC3CC(CC(C3)C1)C2)[O]C(C)=O	inactive: -0.379	inactive: -0.544	inactive: -0.784
CC(C)N1CCN(c2cc(-c3ccccc3)c(C(F)(F)F)nn2)CC1	inactive: -0.833	inactive: -0.305	inactive: 1.01
